Experimental data published in patent US11497813B2, “Bortezomib conjugates and methods using same” (Frank EBETINO et al., priority 2015, dated 2022).

System: osteoclasts
Assay: Osteoclast formation and bone resorption on bone slices pre-incubated with compound
Format: cell-based, mouse
Details: bone slices, washed after incubation
Method: FIG. 5A is a scheme of an exemplary synthesis of compound BP-Btz1. FIG. 5B is a series of images of bone slices pre-incubated with 1 μM BP-Btz1, Btz, or bisphosphonate (BP) overnight. Drug solutions were removed and bone slices were washed with PBS extensively. […] (BM) cells from UB^G76V-GFP mice were cultured on bone slices in the presence of M-CSF and RANKL for 9 days. Top images (a): GFP^+ cells were observed under a fluorescence microscope and GFP signal intensity was quantified. Middle images (b): bone slices were fixed and subjected to TRAP staining for osteoclasts (OCs). OC #/slice were counted. Bottom images (c): cells were removed from slices. Toluidine blue staining was performed and pit areas/slice were counted. […] The ALP^+ areas were measured by Image J. *P<0.05 vs. Btz-treated cells. […]
1. […] Following proteasome inhibitor administration, Ub^G76V accumulates and GFP fluorescence is readily apparent. GFP^+ OCs were detected at 4 and 8 hrs after adding Btz to OC cultures, which disappeared at 24 hrs. […] The number and area of OCs and resorption pits are assessed. The appearance, intensity and distribution of GFP^+ cells on bone slices and plastic surrounding bone slices during OC formation is observed and recorded. […] Area of ALP^+ and mineralized bone nodule, and the expression levels of OB marker genes (ALP, osteocalcin, Runx2) are measured. […]

SMILES: CC(C)C[C@H](NC(=O)[C@H](Cc1ccccc1)NC(=O)c1cnccn1)B1OCCN(CCOC(=O)NC(P(=O)(O)O)P(=O)(O)O)CCO1 [BP-Btz1]
- binding to bone matrix: binds to bone matrix
